Results taken from PubChem BioAssay (NCATS).
The inconclusive results got no clear call from the source; some entries with a clear call stand among them for comparison. For some assays here: Potencies of inconclusive entries are doubtful fits and often do not repeat. Activity calls are given as the source filed them. Calls follow the shape of the dose curve; as a rule, active = well fitted curve in the direction sought with a large enough effect; inconclusive = small, poorly fitted or top-dose-only effect, or another doubt; inactive = no such curve, though single readings can be large; an effect the other way counts as inactive or inconclusive.

By UniProt entry, the sequences of proteins in these tests, tags left out. Where a name states a change or a piece, a line headed by the entry shows the natural chain unless it says otherwise.
UniProt P00883: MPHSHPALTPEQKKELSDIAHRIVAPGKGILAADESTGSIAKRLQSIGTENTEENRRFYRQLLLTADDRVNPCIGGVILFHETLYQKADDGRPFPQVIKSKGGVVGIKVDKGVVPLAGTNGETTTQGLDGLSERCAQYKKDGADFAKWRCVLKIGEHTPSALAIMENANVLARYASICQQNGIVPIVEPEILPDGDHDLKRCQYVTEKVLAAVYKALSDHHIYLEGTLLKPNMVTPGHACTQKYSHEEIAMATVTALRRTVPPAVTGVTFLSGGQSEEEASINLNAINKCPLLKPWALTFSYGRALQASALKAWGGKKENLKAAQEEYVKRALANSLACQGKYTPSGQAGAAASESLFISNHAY
UniProt P11473: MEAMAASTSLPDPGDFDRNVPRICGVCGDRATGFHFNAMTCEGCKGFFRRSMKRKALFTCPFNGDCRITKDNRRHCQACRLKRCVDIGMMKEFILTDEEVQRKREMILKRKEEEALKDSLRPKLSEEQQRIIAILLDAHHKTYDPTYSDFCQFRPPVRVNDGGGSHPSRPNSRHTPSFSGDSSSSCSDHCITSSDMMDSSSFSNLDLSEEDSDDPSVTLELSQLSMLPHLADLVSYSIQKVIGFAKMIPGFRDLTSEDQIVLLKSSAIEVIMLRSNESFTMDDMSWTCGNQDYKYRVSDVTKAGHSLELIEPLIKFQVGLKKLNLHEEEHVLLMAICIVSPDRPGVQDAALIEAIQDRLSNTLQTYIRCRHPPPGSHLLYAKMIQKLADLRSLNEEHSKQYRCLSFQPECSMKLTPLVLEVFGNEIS
UniProt P54132: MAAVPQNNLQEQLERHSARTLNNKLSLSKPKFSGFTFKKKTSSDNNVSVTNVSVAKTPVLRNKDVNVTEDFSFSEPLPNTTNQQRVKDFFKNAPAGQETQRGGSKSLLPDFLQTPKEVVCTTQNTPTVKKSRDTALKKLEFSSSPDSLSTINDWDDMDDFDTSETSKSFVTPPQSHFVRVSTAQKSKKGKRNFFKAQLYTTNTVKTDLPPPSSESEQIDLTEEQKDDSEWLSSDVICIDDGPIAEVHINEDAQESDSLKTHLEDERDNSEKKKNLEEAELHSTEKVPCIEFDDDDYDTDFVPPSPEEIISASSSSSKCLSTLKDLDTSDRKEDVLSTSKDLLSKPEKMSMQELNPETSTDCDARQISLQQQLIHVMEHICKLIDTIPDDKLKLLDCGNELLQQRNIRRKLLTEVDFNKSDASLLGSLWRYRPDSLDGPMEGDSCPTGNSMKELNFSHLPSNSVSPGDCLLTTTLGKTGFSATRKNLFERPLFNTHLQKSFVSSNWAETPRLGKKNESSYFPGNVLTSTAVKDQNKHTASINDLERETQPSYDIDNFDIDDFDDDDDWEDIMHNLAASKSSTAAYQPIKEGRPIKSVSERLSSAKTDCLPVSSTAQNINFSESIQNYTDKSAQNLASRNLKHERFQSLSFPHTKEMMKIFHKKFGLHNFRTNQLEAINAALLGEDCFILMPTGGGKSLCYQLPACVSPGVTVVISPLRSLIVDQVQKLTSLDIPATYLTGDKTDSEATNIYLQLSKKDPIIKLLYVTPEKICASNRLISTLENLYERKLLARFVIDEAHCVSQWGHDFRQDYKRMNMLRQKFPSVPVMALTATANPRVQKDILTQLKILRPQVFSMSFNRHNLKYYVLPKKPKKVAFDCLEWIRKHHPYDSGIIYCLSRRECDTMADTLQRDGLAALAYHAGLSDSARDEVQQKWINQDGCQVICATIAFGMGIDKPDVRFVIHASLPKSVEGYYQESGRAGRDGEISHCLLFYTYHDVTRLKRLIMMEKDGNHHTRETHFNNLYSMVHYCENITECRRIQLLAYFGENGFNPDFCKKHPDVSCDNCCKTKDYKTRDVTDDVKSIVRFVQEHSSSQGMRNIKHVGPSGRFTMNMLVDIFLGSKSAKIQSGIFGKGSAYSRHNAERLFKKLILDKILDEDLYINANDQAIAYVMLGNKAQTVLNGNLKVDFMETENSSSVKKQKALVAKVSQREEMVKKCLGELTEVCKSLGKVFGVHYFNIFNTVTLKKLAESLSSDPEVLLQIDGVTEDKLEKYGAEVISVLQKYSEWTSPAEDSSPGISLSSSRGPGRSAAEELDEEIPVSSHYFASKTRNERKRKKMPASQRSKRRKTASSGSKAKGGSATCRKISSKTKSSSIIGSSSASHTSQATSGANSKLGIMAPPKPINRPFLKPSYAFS
UniProt O15648: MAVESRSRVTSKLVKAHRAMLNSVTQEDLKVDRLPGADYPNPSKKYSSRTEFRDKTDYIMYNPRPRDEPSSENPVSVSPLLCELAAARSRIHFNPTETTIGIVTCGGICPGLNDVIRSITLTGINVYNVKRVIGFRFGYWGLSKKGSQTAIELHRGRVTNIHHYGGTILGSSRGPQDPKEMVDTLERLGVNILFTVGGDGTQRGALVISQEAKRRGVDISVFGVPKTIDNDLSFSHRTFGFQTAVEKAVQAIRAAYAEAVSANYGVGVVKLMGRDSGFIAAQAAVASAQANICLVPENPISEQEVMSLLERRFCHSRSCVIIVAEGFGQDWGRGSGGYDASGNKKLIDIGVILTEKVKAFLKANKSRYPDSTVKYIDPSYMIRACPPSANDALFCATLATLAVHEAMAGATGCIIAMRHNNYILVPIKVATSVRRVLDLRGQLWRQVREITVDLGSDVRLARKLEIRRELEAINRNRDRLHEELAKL
UniProt Q8NER1, whole entry, looked up: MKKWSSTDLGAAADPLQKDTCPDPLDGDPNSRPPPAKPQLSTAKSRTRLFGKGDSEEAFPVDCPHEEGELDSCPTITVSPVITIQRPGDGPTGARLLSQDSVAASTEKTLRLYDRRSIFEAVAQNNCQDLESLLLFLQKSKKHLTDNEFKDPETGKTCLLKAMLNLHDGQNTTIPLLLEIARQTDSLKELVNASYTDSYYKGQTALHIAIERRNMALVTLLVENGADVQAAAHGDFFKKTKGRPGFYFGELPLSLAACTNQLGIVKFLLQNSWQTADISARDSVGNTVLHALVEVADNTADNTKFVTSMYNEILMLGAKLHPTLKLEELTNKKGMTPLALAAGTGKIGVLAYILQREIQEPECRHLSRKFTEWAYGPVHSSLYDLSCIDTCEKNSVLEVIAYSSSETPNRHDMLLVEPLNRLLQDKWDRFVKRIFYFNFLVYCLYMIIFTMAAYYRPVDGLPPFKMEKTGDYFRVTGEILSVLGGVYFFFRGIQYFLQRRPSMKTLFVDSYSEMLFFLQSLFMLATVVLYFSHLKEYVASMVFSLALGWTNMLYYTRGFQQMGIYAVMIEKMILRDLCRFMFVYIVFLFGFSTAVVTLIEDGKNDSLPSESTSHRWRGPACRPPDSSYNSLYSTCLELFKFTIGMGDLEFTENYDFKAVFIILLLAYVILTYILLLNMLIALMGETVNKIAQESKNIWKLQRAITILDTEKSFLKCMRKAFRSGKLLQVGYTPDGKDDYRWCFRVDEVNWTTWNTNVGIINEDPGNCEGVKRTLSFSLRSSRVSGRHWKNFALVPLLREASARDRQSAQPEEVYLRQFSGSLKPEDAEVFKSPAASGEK
UniProt P15289: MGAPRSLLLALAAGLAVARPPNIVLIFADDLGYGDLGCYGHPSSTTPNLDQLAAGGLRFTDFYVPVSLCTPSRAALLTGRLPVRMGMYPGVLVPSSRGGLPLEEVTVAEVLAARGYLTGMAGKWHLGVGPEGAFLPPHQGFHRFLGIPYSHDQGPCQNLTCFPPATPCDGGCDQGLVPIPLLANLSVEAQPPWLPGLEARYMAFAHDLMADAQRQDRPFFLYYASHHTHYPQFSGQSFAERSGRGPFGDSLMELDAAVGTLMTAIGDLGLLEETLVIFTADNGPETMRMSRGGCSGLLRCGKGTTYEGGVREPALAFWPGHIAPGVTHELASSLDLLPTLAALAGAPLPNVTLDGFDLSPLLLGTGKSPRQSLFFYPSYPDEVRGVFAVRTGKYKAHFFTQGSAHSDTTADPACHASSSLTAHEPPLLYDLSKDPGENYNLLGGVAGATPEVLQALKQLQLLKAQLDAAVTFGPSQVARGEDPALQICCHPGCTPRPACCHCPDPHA
UniProt Q9NUW8, whole entry, looked up: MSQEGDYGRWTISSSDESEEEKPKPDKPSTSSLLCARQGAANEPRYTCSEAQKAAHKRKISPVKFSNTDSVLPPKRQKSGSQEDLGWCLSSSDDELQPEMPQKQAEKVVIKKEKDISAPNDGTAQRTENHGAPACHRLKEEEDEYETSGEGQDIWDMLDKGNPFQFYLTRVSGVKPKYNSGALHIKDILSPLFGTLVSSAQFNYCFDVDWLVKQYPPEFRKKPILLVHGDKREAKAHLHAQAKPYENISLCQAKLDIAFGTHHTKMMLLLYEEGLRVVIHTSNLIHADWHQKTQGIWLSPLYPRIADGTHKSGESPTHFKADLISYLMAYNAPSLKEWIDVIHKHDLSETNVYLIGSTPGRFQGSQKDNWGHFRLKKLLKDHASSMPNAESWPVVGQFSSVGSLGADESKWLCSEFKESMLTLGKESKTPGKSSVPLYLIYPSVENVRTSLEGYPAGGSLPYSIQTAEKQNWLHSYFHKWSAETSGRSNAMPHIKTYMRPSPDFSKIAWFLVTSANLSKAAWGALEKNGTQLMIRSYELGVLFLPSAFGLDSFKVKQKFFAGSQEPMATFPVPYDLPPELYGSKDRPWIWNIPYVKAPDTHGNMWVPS

Columns and labels:
[1] = target: Rap guanine nucleotide exchange factor 3 (Homo sapiens) (UniProt O95398); assay: Counterscreen qHTS for agonist of cAMP-regulated guanine nucleotide exchange factor 3 (EPAC1) (AID 1645889); settings: EPAC1 Rap1B-BODIPY-GDP exchange, fluorescence; activation: at 154 µM (top of the series) unless noted; also: nearly all actives have a fitted effect of over 40% in size; also: potency is read from the fitted curve at half-maximal effect; as to activation: % of control where 0% means no effect
Summary of the method: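 Rap1B-BODIPY-GDP 250 nM + GDP 50 uM; cpds 7-pt, final 9.74 nM–152 uM (activator mode) or from 7.32 nM upwards (inhibitor mode); RT; FI 480/540 nm at 5 and 30 min, then ± cAMP, reread.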

[2] = qHTS Assay for Inhibitors of Fructose-1,6-bisphosphate Aldolase from Giardia Lamblia: Giardia lamblia growth inhibition (AID 2785); settings: Giardia lamblia trophozoite growth inhibition; activity change, negative = inhibition: at 57.5 µM (top of the series); also: % is scaled to controls: 0 for no effect and ±100 for the full control effect; nearly all actives have a fitted effect of over 70% in size
Summary of the method: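 Whole-parasite growth test: Giardia WB trophozoites in TYI-S-33 (pH 7.0), 100 per well, incubated 48 h at 37C with compound. ATP content was read by ATPlite luminescence.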

[3] = qHTS Assay for Inhibitors of Fructose-1,6-bisphosphate Aldolase from Giardia Lamblia: Mammalian cellular toxicity (AID 2786);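 also: potency is read from the fitted curve at half-maximal effect; compound exposure lasted 48 h before reading; nearly all actives have a fitted effect of over 60% in size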
Summary of the method: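 Mammalian cytotoxicity surrogate: Chinese hamster ovary cells exposed to compound for 48 h at 37 °C. Cellular ATP then measured with ATPlite reagent, 20 min incubation.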

[4] = target: Fructose-bisphosphate aldolase A (Oryctolagus cuniculus) (UniProt P00883); assay: qHTS Assay for Inhibitors of Fructose-1,6-bisphosphate Aldolase from Giardia Lamblia: Rabbit FBPA Selectivity (AID 2794)
Summary of the method: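 AmpLite Red readout, ex/em 525/598 nm. Rabbit FBPA, GAP-linked coupling enzymes; 10 min cpd preincubation, then 20 min after substrate, both RT. Concentration-response up to 57.5 uM final.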

[5] = qHTS Assay for Inhibitors of Fructose-1,6-bisphosphate Aldolase from Giardia Lamblia: Coupling assay counterscreen confirmation (AID 2795)
Summary of the method: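 Setup: coupling enzyme reagent, compound pin-transferred to up to 57.5 uM final. Incubation: 10 min RT, then substrate + AmpLite Red for 20 min RT. Detection: fluorescence 525/598 nm.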

[6] = target: Vitamin D3 receptor (Homo sapiens) (UniProt P11473); assay: qHTS for Inhibitors of the vitamin D receptor (VDR): Hit Validation using a Fluorescein Assay (AID 602200); also: potency is read from the fitted curve at half-maximal effect
Summary of the method: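 Compounds added to VDR ligand-binding domain (1.5 uM) with agonist LG19078 (5 uM) and 5 nM SRC2-3 fluorescein peptide, final concentrations. After 2 h at ambient temperature, polarization of fluorescein emission (Ex 495 nm/Em 520 nm) measured.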

[7] = qHTS for Inhibitors of the vitamin D receptor (VDR): Hit Validation using a Texas Red Assay (AID 602201); also: potency is read from the fitted curve at half-maximal effect
Summary of the method: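 After a 2-hour room-temperature incubation, polarization of Texas-Red emission was read (Ex 595 nm/Em 615 nm). Final mix contained 7 nM Texas Red, 1.5 uM VDR-LBD and LG19078.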

[8] = target: Vitamin D3 receptor (Homo sapiens) (UniProt P11473); assay: qHTS for Inhibitors of the vitamin D receptor (VDR): Hit Validation using a Beta-Lactamase Assay (AID 602202); also: potency is read from the fitted curve at half-maximal effect
Summary of the method: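 Beta-lactamase reporter read-out (447 nm emission of cleaved FRET substrate, 2 h) after 18 h compound exposure of HEK293 cells carrying a VDR-GAL4 fusion and UAS reporter, stimulated with LG190178.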

[9] = qHTS for Inhibitors of WRN Helicase: Thiazole Orange DNA Binding Counterscreen (AID 720499);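 also: drop in dye fluorescence marks compound binding to DNA; potency is read from the fitted curve at half-maximal effect; nearly all actives have a fitted effect of over 60% in size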
Summary of the method: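 Compounds were pin-transferred into 50 nM unlabeled DNA premixed with 100 nM thiazole orange. After 15 min at room temperature, fluorescence (ex 480 nm, em 530 nm) was read; loss of signal flags dye displacement from nonspecific DNA binders.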

[10] = target: Endonuclease 4 (Escherichia coli (strain K12)) (UniProt P0A6C1); assay: Counterscreen for APE1 Inhibitors: qHTS Validation Assay for Inhibitors of Endonuclease IV (AID 1708); also: % is scaled to controls: 0 for no effect and ±100 for the full control effect
Summary of the method: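 qHTS concentration-response format; LOPAC1280 tested under APE1-screen conditions. 2 nM enzyme, 15 min compound preincubation at RT, then 50 nM TAMRA/BHQ-2 abasic substrate; kinetic fluorescence read, three reads at 60 s intervals.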

[11] = qHTS for differential inhibitors of proliferation of Plasmodium falciparum line GB4 (AID 1816); settings: Potency: Plasmodium falciparum GB4 proliferation inhibition;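 also: parasite growth measured after 72 h incubation; 0% = vehicle DMSO and -100% = reference inhibitor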
[12] = qHTS for differential inhibitors of proliferation of Plasmodium falciparum line W2 (AID 1883); settings: Potency: Plasmodium falciparum W2 proliferation inhibition;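 also: parasites grown with compound for 72 h before lysis and staining; 0% = vehicle wells and -100% = control inhibitor wells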
[13] = target: RecQ-like DNA helicase BLM (Homo sapiens) (UniProt P54132); assay: qHTS Validation Assay for Inhibitors of Bloom's syndrome helicase (BLM) (AID 2364); also: potency is read from the fitted curve at half-maximal effect
Summary of the method: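 Forked 20-bp duplex substrate (200 nM, TAMRA/BHQ-2) plus 2 mM ATP added after 15 min compound preincubation with 50 nM enzyme, pH 8.0, poly(dI-dC) 2.5 ug/ml. Strand separation followed by fluorescence (525/598 nm) over 2 h, normalized to enzyme-free and DMSO controls.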

[14] = Validation screen for small molecules that induce DNA re-replication in MCF 10A normal breast cells (AID 463097); also: 0% is about no effect; nearly all actives have a fitted effect of over 60% in size
Summary of the method: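 Readout: Hoechst nuclear fluorescence intensity, 405 ex / 500-530 em, by scanning plate imager; re-replication scored as increase in nuclei with elevated DNA content. Cells exposed to compound 48 hr, 37 C, 5% CO2 beforehand.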

[15] = target: ATP-dependent 6-phosphofructokinase (Trypanosoma brucei brucei) (UniProt O15648); assay: qHTS Validation Assay to Find Inhibitors of T. brucei phosphofructokinase (AID 485368)
Summary of the method: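 Activity was normalized between 1x (1.25 nM) PFK wells as no inhibition and enzyme-free wells as full inhibition, from luminescence after ADP-Glo detection of ADP made from 0.5 mM F6P and 0.1 mM ATP over 45 min.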

[16] = target: Transient receptor potential cation channel subfamily V member 1 (Homo sapiens) (UniProt Q8NER1); assay: HTS Assay for Compounds that Act as Enhancers of the Vanilloid Receptor 1 (AID 488979); also: 0% is about no effect
Summary of the method: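 Calcium influx kinetics via Fluo-8 (480/520 nm) in TRPV1-expressing cells, 2000/well cultured overnight at 35.5C. Compound-alone read 3 min (agonist phase), followed by EC20 capsaicin challenge for 2 min (enhancer phase).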

[17] = target: Arylsulfatase A (Homo sapiens) (UniProt P15289); assay: qHTS screen for enhancers of Arylsulfatase A (ASA1): LOPAC Validation Assay (AID 720538); also: 0% is about no effect
Summary of the method: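 SV40-transformed skin fibroblasts from an MLD patient (ASA-I179S) were treated with compounds for 48h at 37 degree C, then lysed with 0.5mM pNCS final substrate for 14h at room temperature; NaOH stop, fluorescence read (Ex=525 nm; Em=598 nm).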

[18] = target: Tyrosyl-DNA phosphodiesterase 1 (Homo sapiens) (UniProt Q9NUW8); assay: Confirmation Assay for Inhibitors of Tyrosyl-DNA Phosphodiesterase (TDP1) (AID 489007); settings: recombinant human TDP1 enzymatic activity, dose-response; also: potency is read from the fitted curve at half-maximal effect; nearly all actives have a fitted effect of over 40% in size
Summary of the method: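 Recombinant human Tdp1 (1 nM final), expressed in E. coli, preincubated 15 min with compound. Then 15 nM 5'-biotin/3'-phosphotyrosine-FITC DNA substrate added for 5 min at room temperature. AlphaScreen beads (10 ug/ml) added for 10 min; cleavage gives signal loss.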

[19] = qHTS for Inhibitors of the vitamin D receptor (VDR): Hit Validation using a Cytotoxicity Assay (AID 602204);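 also: cells co-treated with VDR agonist LG190178 at 300 nM; potency is read from the fitted curve at half-maximal effect; nearly all actives have a fitted effect of over 75% in size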
Summary of the method: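 ATP luminescence, 30 min post-reagent. Exposure: 18 h. Seeding: 20,000 cells/well, 4 h prior to compound. Controls: cycloheximide, DMSO.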

Compound: CCc1ccc([C@@H]2CC=C(C(=O)O)[C@H](c3ccc(Cl)cc3)N2S(=O)(=O)c2ccc(C)cc2)cc1
- activation [1]: inactive: 4.76% [at 30.8 µM]

Compound: Cc1nc(-c2cccc(NC(=O)Cc3ccccc3)c2)cs1
- activation [1]: inactive: 2.08% [at 30.8 µM]

Compound: O=C1C(Cl)=C(NC(=O)c2ccccc2)C(=O)C(Cl)=C1NC(=O)c1ccccc1
- Potency [2]: inactive
- Potency [3]: inconclusive: 25.1 µM [inhibitor, single point]
- Potency [4]: active: 3.55 µM
- Potency [5]: active: 1.41 µM
- Potency [6]: inconclusive: 3.16 µM [inhibitor, partial curve, poor fit]
- Potency [7]: inconclusive: 3.55 µM [inhibitor, partial curve, poor fit]
- Potency [8]: active: 3.66 µM
- Potency [9]: active: 21.5 µM
- Potency [1]: inconclusive: 11.2 µM [activator, partial curve, poor fit]

Compound: NC(N)=N[C@@H](CCC(=O)O)C(=O)O
- Potency [10]: inactive
- Potency [11]: inactive
- Potency [12]: inactive
- Potency [13]: inconclusive: 0.0003 µM [inhibitor]
- Potency [14]: inactive
- Potency [15]: inactive
- Potency [16]: inactive
- Potency [17]: inactive

Compound: C=CCCCN(Cc1ccccc1)S(=O)(=O)c1ccccc1Br
- Potency [18]: inconclusive: 50.1 µM [inhibitor, single point]
- activation [1]: inactive: 12.4% [at 30.8 µM]

Compound: O=S(=O)(Nc1cc2nc3ccccc3nc2n1Cc1ccccc1)c1ccc(Cl)cc1
- Potency [6]: inactive
- Potency [7]: inactive
- Potency [8]: inconclusive: 11.6 µM [inhibitor, partial curve, poor fit]
- Potency [19]: inconclusive: 14.6 µM [cytotoxic, partial curve]
- Potency [1]: inactive
